Results from PMC9396412.
Results are given in words; binding and its absence hold for the method and conditions named. In cells and extracts the contact can be indirect. Some results given as binding are weak or reduced against the parent protein; the word gives no strength. For part of these data: Tags and fused reporters may be left off the sequences shown. One block for each molecule: values may come before it.

Sequences of proteins named here, by UniProt entry; tags and fusion partners are left off. Residues count along the entry.
UniProt P37023, residues 22-503: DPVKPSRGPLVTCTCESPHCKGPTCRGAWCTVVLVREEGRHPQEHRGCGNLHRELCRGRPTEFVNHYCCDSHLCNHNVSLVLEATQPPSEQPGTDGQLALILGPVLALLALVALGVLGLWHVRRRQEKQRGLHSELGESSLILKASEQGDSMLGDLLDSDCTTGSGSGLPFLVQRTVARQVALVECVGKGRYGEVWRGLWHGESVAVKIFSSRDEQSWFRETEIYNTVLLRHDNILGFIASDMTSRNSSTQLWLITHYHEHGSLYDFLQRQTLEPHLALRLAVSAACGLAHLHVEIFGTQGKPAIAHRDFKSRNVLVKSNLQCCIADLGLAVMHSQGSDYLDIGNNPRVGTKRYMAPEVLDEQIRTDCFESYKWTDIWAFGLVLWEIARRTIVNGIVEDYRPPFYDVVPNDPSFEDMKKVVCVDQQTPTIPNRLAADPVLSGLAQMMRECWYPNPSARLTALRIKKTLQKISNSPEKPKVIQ
UniProt P06213, residues 28-1382: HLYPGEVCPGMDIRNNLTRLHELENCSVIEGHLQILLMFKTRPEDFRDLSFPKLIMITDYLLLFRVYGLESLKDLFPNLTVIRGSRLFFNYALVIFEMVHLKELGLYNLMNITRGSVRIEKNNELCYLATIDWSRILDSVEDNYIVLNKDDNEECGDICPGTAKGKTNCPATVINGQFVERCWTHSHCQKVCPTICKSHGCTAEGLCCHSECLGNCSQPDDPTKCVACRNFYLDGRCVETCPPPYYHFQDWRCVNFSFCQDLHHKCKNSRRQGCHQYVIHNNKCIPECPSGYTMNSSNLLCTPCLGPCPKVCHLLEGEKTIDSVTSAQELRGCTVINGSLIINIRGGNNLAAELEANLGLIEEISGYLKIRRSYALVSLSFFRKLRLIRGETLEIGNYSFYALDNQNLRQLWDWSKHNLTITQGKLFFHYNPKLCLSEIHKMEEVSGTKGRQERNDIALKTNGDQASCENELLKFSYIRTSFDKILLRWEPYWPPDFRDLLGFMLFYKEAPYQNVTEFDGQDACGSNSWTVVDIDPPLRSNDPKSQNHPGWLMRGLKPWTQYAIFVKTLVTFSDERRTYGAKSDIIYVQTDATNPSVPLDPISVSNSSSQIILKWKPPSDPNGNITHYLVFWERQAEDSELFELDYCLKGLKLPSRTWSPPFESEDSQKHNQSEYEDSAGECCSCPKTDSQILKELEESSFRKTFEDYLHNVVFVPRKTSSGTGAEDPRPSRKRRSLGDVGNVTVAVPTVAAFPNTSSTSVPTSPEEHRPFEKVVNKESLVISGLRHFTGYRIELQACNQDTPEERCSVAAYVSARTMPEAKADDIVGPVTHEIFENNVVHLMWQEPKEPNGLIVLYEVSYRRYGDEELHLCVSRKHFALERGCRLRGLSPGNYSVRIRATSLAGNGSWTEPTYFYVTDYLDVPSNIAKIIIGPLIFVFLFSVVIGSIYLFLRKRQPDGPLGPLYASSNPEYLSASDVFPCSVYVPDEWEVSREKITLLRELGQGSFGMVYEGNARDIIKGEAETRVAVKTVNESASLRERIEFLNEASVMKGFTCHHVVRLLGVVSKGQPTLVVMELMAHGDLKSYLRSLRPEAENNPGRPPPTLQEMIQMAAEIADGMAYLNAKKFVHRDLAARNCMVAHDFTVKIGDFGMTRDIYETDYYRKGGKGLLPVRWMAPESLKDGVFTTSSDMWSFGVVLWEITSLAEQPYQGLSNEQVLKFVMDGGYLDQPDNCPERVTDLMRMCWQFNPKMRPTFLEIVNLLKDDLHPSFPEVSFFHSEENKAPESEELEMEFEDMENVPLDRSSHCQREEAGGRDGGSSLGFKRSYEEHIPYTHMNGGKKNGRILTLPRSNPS

Key:
[1] = biological target: T1, hemagglutinin (HA)-tagged endoglin (human) (UniProt P17813); assay: co-IP; COS-7 cells overexpressing HA-endoglin and IR; IP with HA antibody (legend: endoglin antibody), blot for IR; lysis buffer 20 mM Hepes pH 7.4, 150 mM NaCl, 5 mM NaF, 1% NP-40; 6 h at 4 °C
T1 sequence: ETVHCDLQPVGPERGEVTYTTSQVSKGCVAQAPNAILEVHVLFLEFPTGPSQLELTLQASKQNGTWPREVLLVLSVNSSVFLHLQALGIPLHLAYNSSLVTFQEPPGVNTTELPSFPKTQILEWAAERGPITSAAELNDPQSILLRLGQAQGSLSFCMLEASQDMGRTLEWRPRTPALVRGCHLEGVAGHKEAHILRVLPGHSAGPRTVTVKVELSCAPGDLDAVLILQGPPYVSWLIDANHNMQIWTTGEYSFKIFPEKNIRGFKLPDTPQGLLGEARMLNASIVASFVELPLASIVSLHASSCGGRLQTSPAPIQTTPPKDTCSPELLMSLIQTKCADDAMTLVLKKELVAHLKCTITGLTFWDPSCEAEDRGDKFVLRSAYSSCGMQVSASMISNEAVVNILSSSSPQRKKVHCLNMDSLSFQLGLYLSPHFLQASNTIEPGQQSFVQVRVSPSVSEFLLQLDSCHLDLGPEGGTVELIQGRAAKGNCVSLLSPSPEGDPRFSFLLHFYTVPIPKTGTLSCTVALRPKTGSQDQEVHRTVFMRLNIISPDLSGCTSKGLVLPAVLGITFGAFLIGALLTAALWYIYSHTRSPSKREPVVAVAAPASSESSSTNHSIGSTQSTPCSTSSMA

[2] = biological target: T2, endogenous endoglin of mouse embryonic endothelial cells (mouse (endogenous in MEECs)) (UniProt Q63961); assay: co-IP; endogenous proteins in Eng+/+ MEECs (Eng-/- as control), serum starved 6 h, with or without insulin for 15 min; IP of endoglin, blots for IR and ALK1; lysis buffer 20 mM Hepes pH 7.4, 150 mM NaCl, 5 mM NaF, 1% NP-40
T2 sequence: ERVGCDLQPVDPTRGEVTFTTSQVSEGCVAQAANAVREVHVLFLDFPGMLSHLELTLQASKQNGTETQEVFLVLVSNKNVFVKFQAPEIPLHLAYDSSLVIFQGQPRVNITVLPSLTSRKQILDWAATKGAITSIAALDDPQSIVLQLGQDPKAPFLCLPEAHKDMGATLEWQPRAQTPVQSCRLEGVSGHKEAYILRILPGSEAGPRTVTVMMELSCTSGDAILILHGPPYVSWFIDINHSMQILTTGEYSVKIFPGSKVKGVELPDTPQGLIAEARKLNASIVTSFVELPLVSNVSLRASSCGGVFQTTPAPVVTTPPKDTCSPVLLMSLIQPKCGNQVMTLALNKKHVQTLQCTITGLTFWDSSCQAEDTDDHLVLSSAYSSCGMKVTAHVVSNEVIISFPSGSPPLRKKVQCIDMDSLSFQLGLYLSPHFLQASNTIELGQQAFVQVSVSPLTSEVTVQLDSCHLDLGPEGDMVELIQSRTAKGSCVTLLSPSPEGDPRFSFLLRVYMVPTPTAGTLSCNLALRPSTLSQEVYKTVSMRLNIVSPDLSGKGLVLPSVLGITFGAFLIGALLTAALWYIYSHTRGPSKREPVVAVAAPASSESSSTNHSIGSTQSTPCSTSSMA

Myc-tagged ALK1 = Myc-tagged ALK1 (UniProt P37023); assay: pull-down; Myc-ALK1 from COS-7 cells immobilised on anti-Myc bead column as bait; separately prepared COS-7 lysates with endoglin alone, IR alone, or endoglin and IR; Western blot; only the target purified

Molecule: insulin receptor (IR), overexpressed in COS-7 cells (from UniProt P06213 28-1382)
binding [1]: binds

binding [2]: binds
B1: endogenous ALK1 of mouse embryonic endothelial cells (receptor, UniProt Q61288 23-502)
chain: DLAKPSKLVNCTCESPHCKRPFCQGSWCTVVLVREQGRHPQVYRGCGSLNQELCLGRPTEFLNHHCCYRSFCNHNVSLMLEATQTPSEEPEVDAHLPLILGPVLALPVLVALGALGLWRVRRRQEKQRDLHSDLGESSLILKASEQADSMLGDFLDSDCTTGSGSGLPFLVQRTVARQVALVECVGKGRYGEVWRGSWHGESVAVKIFSSRDEQSWFRETEIYNTVLLRHDNILGFIASDMTSRNSSTQLWLITHYHEHGSLYDFLQRQTLEPQLALRLAVSAACGLAHLHVEIFGTQGKPAIAHRDLKSRNVLVKSNLQCCIADLGLAVMHSQSSDYLDIGNNPRVGTKRYMAPEVLDEHIRTDCFESYKWTDIWAFGLVLWEIARRTIINGIVEDYRPPFYDMVPNDPSFEDMKKVVCVDQQTPTIPNRLAADPVLSGLAQMMRECWYPNPSARLTALRIKKTLQKLSHNPEKPKVIH

B2: hemagglutinin (HA)-tagged endoglin (receptor, UniProt P17813 26-658)
chain: T1 sequence
binding (Myc-tagged ALK1): binds
